In patent US20250034256A1 (EUCURE BEIJING BIOPHARMA, published 2025):
Results are given in words; binding and its absence hold for the method and conditions named. Some results given as binding are weak or reduced against the parent protein; the word gives no strength.

Amino acid sequences for entries named in this document (tags omitted). A change or cut given only in a name is not applied to a line headed by its entry.
UniProt Q15116: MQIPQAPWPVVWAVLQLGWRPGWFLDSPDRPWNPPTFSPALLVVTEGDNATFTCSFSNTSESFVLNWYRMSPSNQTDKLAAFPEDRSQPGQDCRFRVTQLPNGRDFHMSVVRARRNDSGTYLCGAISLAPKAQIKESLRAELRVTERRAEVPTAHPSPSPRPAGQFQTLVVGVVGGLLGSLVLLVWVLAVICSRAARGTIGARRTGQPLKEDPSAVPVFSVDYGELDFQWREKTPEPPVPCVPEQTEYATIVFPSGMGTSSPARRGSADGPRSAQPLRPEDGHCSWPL

Legend:
[1] = biological target: Histidine-tagged human PD-1 protein (hPD-1-His) (human) (UniProt Q15116); assay: SPR (Biacore T200), antibody captured on Protein A chip, human PD-1 (hPD-1-His by the method of paragraph 241 and paragraph 243) injected as analyte
[2] = biological target: chimeric (mouse and human) PD-1 (chiPD-1) on transfected CHO cells (chimeric (mouse and human)); assay: flow cytometry on CHO cells transfected with chiPD-1, antibody at 1 µg/ml
[3] = biological target: monkey (rhesus macaque) PD-1 (rmPD-1) on transfected CHO cells (rhesus macaque); assay: flow cytometry on CHO cells transfected with rmPD-1, antibody at 1 µg/ml
[4] = biological target: human PD-1 (hPD-1) on transiently transfected CHO cells (human) (UniProt Q15116); assay: flow cytometry on CHO cells transfected with human PD-1, anti-mIgG Fc-FITC

| Binder | binding [1] | binding [2] | binding [3] | binding [4] |
| --- | --- | --- | --- | --- |
| 3F1-mHvKv-IgG4-S228P (antibody, V domains shown, Chimeric antibody: mouse 3F1 variable domains, human IgG4 constant domains (CL, CH1, CH2, CH3) with S228P (EU numbering); also called 18-3F1-mHvKv-IgG4-S228P; 3F1-mHyKy-IgG4-S228P) VH: QVQLQQSGAELAKPGASVKMSCKASGYTFTSYWMHWVKQRPGQGLEWIGYINPSTGYTEYNQKFKDKATLTADKSSSTAYMQLSSLTSEDSAVYYCARGVRYYFDYWGQGTTLTVSS VL: DIVMSQSPSSLAVSAGEKVTMSCKSSQSLLNSRTRKNYLAWYQQKPGQSPKLLIYWASTRESGVPDRFTGSGSGTDFTLTISSVQAEDLAVYYCKQSYNLLTFGAGTKLELK | binds |  |  |  |
| mouse anti-hPD-1 antibody 3-6G1 (antibody, V domains shown, Mouse monoclonal antibody purified from ascites; also called 03-6G1) VH: QVQLQQSGAELAKPGASLKMSCKASGYTLTSYWMHWVKQRPGQGLEWIGYINPNTGYTEYNQKFKDKATLTADKSSSTAYMQLSSLTSEDSAVYYCARGTAYYFDYWGQGTTLTVSS VL: DIVMSQSPSSLAVSAGEKVTMSCKSSQSLLNSRTRKNYLAWYQQKPGQSPKLLIYWASTRESGVPDRFTGSGSGTDFTLTISSVQAEDLAVYYCKQSYNLQTFGGGTKLEIK |  | binds | binds | binds |
